Laboratory results reported in the supplement of paper PMC7830784.
Counter-ions that a name gives are not always drawn. This is one part of the list. Most values lie within the scatter of the assay; repeated measurements hardly agree.

Tested on: Brugia pahangi adult female
Assay: motility inhibition on day 3 relative to DMSO vehicle; higher = more active
Conditions: 10 µM; 3 days

Structure (SMILES)	motility inhibition on day 3 [%]
C[C@@H]1C[C@@H]([C@H](O)CC2CC(=O)NC(=O)C2)C(=O)[C@@H](C)C1 [cycloheximide]	8.39
CC(O)(CS(=O)(=O)c1ccc(F)cc1)C(=O)Nc1ccc(C#N)c(C(F)(F)F)c1 (configuration not stated) [bicalutamide]	24.7
CCOC(=O)c1cncn1[C@H](C)c1ccccc1 [etomidate]	14.8
O=c1cccc2n1C[C@@H]1CNC[C@H]2C1 [cytisine]	14.3
NCC1(CC(=O)O)CCCCC1 [Gabapentin]	13.8
NCC1(CC(=O)O)CCCCC1 [gabapentin]	2.77
O=C(CCCN1CCC2(CC1)C(=O)NCN2c1ccccc1)c1ccc(F)cc1 [Spiperone hydrochloride]	10.3
O=[N+]([O-])O[C@H]1CO[C@H]2[C@@H]1OC[C@H]2O[N+](=O)[O-] [isosorbide dinitrate]	69
CN1C[C@H](CNC(=O)OCc2ccccc2)C[C@@H]2c3cccc4c3c(cn4C)C[C@H]21 [metergoline]	2.07
Oc1ccc2c3c1O[C@H]1[C@@H](O)CC[C@@]4(O)[C@@H](C2)N(CC2CCC2)CC[C@]314 [nalbuphine hydrochloride]	0.809
CC(C)c1cccc(C(C)C)c1O [Propofol]	0.969
c1ccc2c(c1)OCC(C1=NCCN1)O2 (configuration not stated) [idazoxan hydrochloride]	< 0
CC1C=CC=CCCC=CC=CC=CC=CC(OC2OC(C)C(O)C(N)C2O)CC2OC(O)(CC(O)C(O)CCC(O)CC(O)CC(O)CC(=O)OC(C)C(C)C1O)CC(O)C2C(=O)O (configuration not stated) [nystatin]	25.1
CC[C@@H](CO)NC(=O)[C@@H]1C=C2c3cccc4c3c(cn4C)C[C@H]2N(C)C1 [methysergide maleate]	38.3
COc1cc2c(c(OC)c1OC)-c1ccc(OC)c(=O)cc1[C@@H](NC(C)=O)CC2 [colchicine]	< 0
C[C@]12CC[C@H](O)CC1=CC[C@@H]1[C@@H]2CC[C@]2(C)C(=O)CC[C@@H]12 [prasterone]	4.47
CC(=O)O[C@H]1C[C@@H]2CC[C@@H]3[C@H](CC[C@@]4(C)[C@H]3C[C@H]([N+]3(C)CCCCC3)[C@@H]4OC(C)=O)[C@@]2(C)C[C@@H]1[N+]1(C)CCCCC1 [pancuronium bromide]	< 0
CN[C@@H](C)[C@H](O)c1ccccc1 [(-)-Ephedrine]	< 0
C[C@]12CC[C@H]3[C@@H](CCC4=CC(=O)CC[C@@]43C)[C@@H]1CC[C@@H]2O [testosterone]	18.1
c1ccc2c(c1)Nc1ccccc1S2 [phenothiazine]	82.1
O=c1c2ccccc2[se]n1-c1ccccc1 [ebselen]	6.53
Cc1ccc(/N=C/N(C)/C=N/c2ccc(C)cc2C)c(C)c1 [amitraz]	< 0
CC(C)c1cccc(C(C)C)c1OCOP(=O)(O)O [Sodium (2,6-diisopropylphenoxy)methyl Phosphate]	30.8
C[C@]12CCC(=O)C=C1C=C[C@@H]1[C@@H]2CC[C@@]2(C)[C@H]1CC[C@@]2(O)CCC(=O)O [canrenoic acid]	22.9

Looked up one by one from above, 3 records:
Structure (SMILES)	motility inhibition on day 3 [%]
NCC1(CC(=O)O)CCCCC1 [Gabapentin]	13.8
CC1C=CC=CCCC=CC=CC=CC=CC(OC2OC(C)C(O)C(N)C2O)CC2OC(O)(CC(O)C(O)CCC(O)CC(O)CC(O)CC(=O)OC(C)C(C)C1O)CC(O)C2C(=O)O (configuration not stated) [nystatin]	25.1
CC[C@@H](CO)NC(=O)[C@@H]1C=C2c3cccc4c3c(cn4C)C[C@H]2N(C)C1 [methysergide maleate]	38.3

Later entries:

Structure (SMILES)	motility inhibition on day 3 [%]
CC[C@@H](C(=O)[C@@H](C)[C@@H](O)[C@H](C)[C@@H]1O[C@@H]([C@@H](CC)C(=O)O)CC[C@@H]1C)[C@H]1O[C@]2(C=C[C@@H](O)[C@]3(CC[C@@](C)([C@H]4CC[C@](O)(CC)[C@H](C)O4)O3)O2)[C@H](C)C[C@@H]1C [salinomycin]	99.7
Cc1cccc(C)c1NC(=O)CN1CCCC1=O [nefiracetam]	0.687
S=C=NCc1ccccc1 [benzyl isothiocyanate]	43.3
COP(=O)(OC)OC=C(Cl)Cl [dichlorvos]	56.8
COP(=O)(OC)C(O)C(Cl)(Cl)Cl (configuration not stated) [trichlorfon]	4.98
C=CCN1CC[C@]23c4c5ccc(O)c4O[C@H]2C(=O)CC[C@@]3(O)[C@H]1C5 [naloxone hydrochloride]	< 0
O=c1n(Cl)c(=O)n(Cl)c(=O)n1Cl [symclosene]	3.08
CN1C[C@H](C(=O)N[C@]2(C)O[C@@]3(O)[C@@H]4CCCN4C(=O)[C@H](Cc4ccccc4)N3C2=O)C=C2c3cccc4[nH]cc(c34)C[C@H]21 [ergotamine tartrate]	19.8
[O-][n+]1ccccc1[S-].[O-][n+]1ccccc1[S-].[Zn+2] [pyrithione zinc]	99.5
O=[N+]([O-])C(Br)(CO)CO [bronopol]	15.6
CN1[C@@H]2C[C@@H](OC(=O)[C@H](CO)c3ccccc3)C[C@H]1[C@@H]1O[C@@H]12 [scopolamine hydrobromide]	14.6
CN[C@@H](C)[C@@H](O)c1ccccc1 [(+)-Pseudoephedrine]	< 0
C=C/C=C\CC1=C(C)[C@@H](OC(=O)[C@@H]2[C@@H](/C=C(\C)C(=O)OC)C2(C)C)CC1=O.C=C/C=C\CC1=C(C)[C@@H](OC(=O)[C@@H]2[C@@H](C=C(C)C)C2(C)C)CC1=O [pyrethrins]	23.3
NCc1cccnc1 [picolamine]	5.55
O=C(O)CCCO [sodium oxybate]	0.223
CC(NC(C)(C)C)C(=O)c1cccc(Cl)c1 (configuration not stated) [Bupropion hydrochloride]	6.99
CCOC(=O)CC(SP(=S)(OC)OC)C(=O)OCC (configuration not stated) [malathion]	< 0
CN1CC[C@]23c4c5ccc(O)c4O[C@H]2[C@@H](O)C=C[C@H]3[C@H]1C5 [Morphine sulfate salt pentahydrate]	8.54
CC(N)Cc1ccc(O)cc1 (configuration not stated) [hydroxyamphetamine hydrobromide]	32.9
CN1CCN(C(=O)O[C@H]2c3nccnc3C(=O)N2c2ccc(Cl)cn2)CC1 [eszopiclone]	9.66
O=C1CC[C@@]2(O)[C@H]3Cc4ccc(O)c5c4[C@@]2(CCN3CC2CC2)[C@H]1O5 [naltrexone hydrochloride]	7.21
NC(=O)c1cc([N+](=O)[O-])cc([N+](=O)[O-])c1 [nitromide]	43.1
CN[C@@H]1[C@@H](O)[C@@H](O[C@@H]2[C@@H](O)[C@H](O[C@H]3O[C@H](CN)CC[C@H]3N)[C@@H](N)C[C@H]2N)OC[C@]1(C)O.CN[C@@H]1[C@@H](O)[C@@H](O[C@@H]2[C@@H](O)[C@H](O[C@H]3O[C@H]([C@@H](C)N)CC[C@H]3N)[C@@H](N)C[C@H]2N)OC[C@]1(C)O.CN[C@@H]1[C@@H](O)[C@@H](O[C@@H]2[C@@H](O)[C@H](O[C@H]3O[C@H]([C@@H](C)NC)CC[C@H]3N)[C@@H](N)C[C@H]2N)OC[C@]1(C)O [gentamicin sulfate]	17.4
